Reference: PubChem BioAssay AID504444 (National Center for Advancing Translational Sciences (NCATS), 2011)
Hit rate of the full screen: of about 360,000 compounds, about 7,500 (2.1%) were called active. Inconclusive results, whose numbers are uncertain, are shown with a selection of clear calls. The call rests on the fitted dose curve; in most records, active means well fitted inhibition curve with a large enough effect; inconclusive means small, poorly fitted or top-dose-only effect, or effect the other way; inactive means flat fitted curve, though single readings scatter. Where the call is inconclusive, the potency comes from a doubtful curve fit.

Test: Nrf2 qHTS screen for inhibitors; further: nearly all actives have a fitted effect of over 60% in size
Settings: A549 ARE-Fluc reporter, luciferase luminescence, 18-24 h; activity change, negative = inhibition: at 46 µM (top of the series)
Method in brief: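 Cells were seeded and rested 2 h, then exposed to compounds for 18-24 h. CellTiter-Fluor was read first as a viability measure. BugLite was added 15 min before the final luminescent read of ARE-luciferase activity in A549 cells.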
On the % scale 0 is the no-effect control and ±100 the full control effect; potency means the concentration at half of the fitted maximal effect.

SMILES	Potency	activity change, negative = inhibition
COc1ccccc1N1CCN(C2CCCN(S(=O)(=O)c3ccc(C)cc3)C2)CC1 (stereo not given)	inconclusive: 23.1 µM [falling, partial curve, poor fit]	–
CN(CC(=O)Nc1cccc(F)c1)CC(=O)Nc1cccc([N+](=O)[O-])c1	inconclusive: 20.6 µM [falling, partial curve, poor fit]	–
O=C1NC(=S)N/C1=C\c1ccc(N2CCOCC2)cc1	inconclusive: 29.1 µM [falling, single point]	–
NN=C1c2ccccc2-c2ccc(N)cc21	inconclusive: 32.6 µM [falling, partial curve, poor fit]	–
COC(=O)c1ccc(C(=O)OC)c(-n2c(=O)c3ccccc3c3ccccc3c2=O)c1	inconclusive: 29.1 µM [falling, single point]	–
CCC(=O)c1ccc(OCC(O)Cn2cnc3ccccc32)cc1 (stereo not given)	inconclusive: 1.84 µM [falling, partial curve, poor fit]	–
COc1ccccc1-c1c(C(F)(F)F)oc2c(CN3CCCCC3C)c(O)ccc2c1=O (stereo not given)	inconclusive: 5.8 µM [falling, single point]	–
COc1ccc(-n2nc(C(=O)NCC(=O)NCCCN3CCN(C)CC3)c3ccccc3c2=O)cc1OC	inconclusive: 32.6 µM [activator, single point]	–
CCN1C(=O)c2ccccc2S(=O)c2ccc(C(=O)N3CCN(c4ccc(F)cc4)CC3)cc21 (stereo not given)	inconclusive: 9.2 µM [falling, partial curve, poor fit]	–
C/C(=N\NC(=O)c1ccc(O)cc1)c1ccc2c(c1)OCCO2	inconclusive: 16.4 µM [falling, single point]	–
COc1cccc(NC(=O)C(=O)c2cn(CC(=O)N3CCOCC3)c3ccccc23)c1	inconclusive: 29.1 µM [falling, single point]	–
COc1ccc2c(c1)C1=C(CC2)C(c2ccc(C)cc2)NC(=S)N1 (stereo not given)	inconclusive: 18.4 µM [falling, single point]	–
CC(=O)Nc1cccc(C(=O)N/N=C/c2ccc(F)cc2)c1	inconclusive: 0.259 µM [activator, full curve, poor fit]	–
COc1ccccc1-c1c(C)nn2c(N3CCOCC3)cc(C)nc12	inconclusive: 29.1 µM [falling, partial curve, poor fit]	–
CC(=O)N1CCCc2ccc(NS(=O)(=O)c3ccc(C)cc3)cc21	inconclusive: 20.6 µM [falling, partial curve]	–
Cc1ccc(C(=O)Nc2ccc(C)c(S(=O)(=O)Nc3ccccc3Cl)c2)s1	inconclusive: 18.4 µM [falling, single point]	–
CN(CC(=O)Nc1cc(S(=O)(=O)N2CCCC2)ccc1Cl)Cc1cccs1	active: 25.9 µM	–
O=C(Cc1c(F)cccc1Cl)Nc1ccc(S(=O)(=O)N2CCCC2)cc1	inconclusive: 7.31 µM [falling, partial curve]	–
C/C(=C\C(=O)c1ccc(C)cc1)NCc1ccc(F)cc1	inconclusive: 0.82 µM [falling, partial curve, poor fit]	–
COc1ccc(CNC(=O)CSc2nc(C)cs2)cc1	inconclusive: 20.6 µM [activator, partial curve, poor fit]	–

SMILES	Potency	activity change, negative = inhibition
CCn1cc2nc(SCC(=O)Nc3ccc(OC)cc3OC)n(Cc3ccc(OC)cc3)c(=O)c2n1	inconclusive: 11.6 µM [activator, partial curve]	–
CC(=O)Oc1ccc2c(=O)c(-c3ccccc3)coc2c1	inconclusive: 14.6 µM [activator, partial curve]	–
CC(C)[Si]1(C(C)C)OCC2OC(n3cnc4c(N)ncnc43)C(N)C2O[Si](C(C)C)(C(C)C)O1 (stereo not given)	inconclusive: 29.1 µM [falling, single point]	–
c1csc(-c2nc(-c3ccc(-c4ccon4)s3)no2)c1	inconclusive: 6.51 µM [activator, full curve]	–
O=C(c1cc(COc2ccc(F)c(F)c2)on1)N1CCOCC1	–	inactive: 0%
COc1ccc(-c2cc3ccc(OCC(=O)NCC4CCC(C(=O)O)CC4)cc3oc2=O)cc1 (stereo not given)	inconclusive: 23.1 µM [falling, single point]	–
CCOC(=O)c1c(C)[nH]c(C(=O)OCC(=O)NCc2ccc(F)cc2)c1C	inconclusive: 18.4 µM [falling, single point]	–
COc1ccc(-c2noc(-c3ccccc3Cl)n2)cc1OC	inconclusive: 8.2 µM [activator, partial curve, poor fit]	–
Nc1cc(Cl)ccc1C(=O)OCC(=O)NCc1cccs1	inconclusive: 9.2 µM [activator, partial curve, poor fit]	–
CCOC(=O)c1cnn2c(C)cc(-c3ccccc3)nc12	inconclusive: 20.6 µM [activator, single point]	–
COc1cccc(-c2cnc(NCc3cc(Cl)ccc3O)n2C)c1	inconclusive: 25.9 µM [falling, partial curve, poor fit]	–
COc1cc(NC(=O)c2cccs2)c(OC)cc1NC(=O)CCn1nnc2ccccc21	–	inactive: 0.233%
COc1ccc(Cn2c(=O)c3oc4ccccc4c3n(Cc3ccccc3)c2=O)cc1	inconclusive: 23.1 µM [activator, single point]	–
CC(C)Cn1nc(NS(=O)(=O)c2ccccc2)c2cc3ccccc3nc21	–	inactive: 5.42%
CCOC(=O)Nc1cccc(OCC(=O)Nc2ccc3c(c2)CCC3)c1	inconclusive: 29.1 µM [falling, single point]	–
Cc1ccc(OCCSc2nc(-c3cccs3)nc3cc(=O)[nH]n23)cc1Cl	inconclusive: 16.4 µM [falling, single point]	–
O=C(CSc1c2c(nc3ccccc13)CCC2)Nc1ccc(F)cc1F	inconclusive: 29.1 µM [falling, single point]	–
CC1CCCCN1C(=O)COc1ccc2ccc(=O)oc2c1 (stereo not given)	inconclusive: 23.1 µM [activator, partial curve, poor fit]	–
Cc1cc(SCC(=O)NC2CCCC2)nc2ccccc12	–	inactive: -1.78%
COc1ccc(NC(=O)CN(C)C(=O)c2cn(-c3ccccc3)nc2-c2ccc(Cl)cc2)cc1	inconclusive: 32.6 µM [falling, single point]	–

One compound at a time, from the list above:
CN(CC(=O)Nc1cccc(F)c1)CC(=O)Nc1cccc([N+](=O)[O-])c1 as listed: Potency: inconclusive: 20.6 µM [falling, partial curve, poor fit]
COc1cccc(-c2cnc(NCc3cc(Cl)ccc3O)n2C)c1 as listed: Potency: inconclusive: 25.9 µM [falling, partial curve, poor fit]
